Test results: PMC6134199
The exact form of at least one protein or probe is not confirmed. A negative result means that nothing was seen under these conditions. Tags and fusion partners may be left off the protein sequences shown.

Target: T1, YijO (Escherichia coli K-12 W3110 type A) (UniProt P32677)
T1 sequence (looked up, limits assumed): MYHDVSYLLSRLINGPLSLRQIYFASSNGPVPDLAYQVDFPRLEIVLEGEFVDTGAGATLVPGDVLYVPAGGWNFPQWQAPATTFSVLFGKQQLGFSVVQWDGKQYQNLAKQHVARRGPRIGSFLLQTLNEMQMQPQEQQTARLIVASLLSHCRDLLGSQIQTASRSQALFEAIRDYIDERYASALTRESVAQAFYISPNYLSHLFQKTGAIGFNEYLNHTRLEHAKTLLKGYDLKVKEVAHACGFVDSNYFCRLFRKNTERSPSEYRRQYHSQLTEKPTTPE
Experiment: EMSA
Settings: 0.5 pmol each FITC probe + 20 pmol TF (Fig 4: 0-8 pmol) in 10 ul DNA-binding buffer (composition not given, ref 38), 37 C, 20 min, PAGE with mixed probes; recombinant protein; protein details: His; label: FITC

Sequence	binding result
ATTATAAAGATTTGTAAATATAACCGTCTCCGGTATGTTGCCTGAGGCGGTTTTTTTGTCTCTAACGTGCGGAAAAATTTGTTCCTCTTCACATTTTTTGTACAACCGACATGCCCGTGTAGCTCACAAATATGACAGTGGCGTGAATTTTGCGCATTGACGGCAGTTATGATTCGCGGTATTGCTTAACTGTGATTGCACATTTAGTAATCACTGTTTTCTTTTCCACCAGAAACCAGTATGAGGGAAACGAGGC (double strand) [rmf promoter probe (256 bp)]	binds
CGTACCGACCCCATATCGTGACGCCGCTGCTGTTGTACTAACCAAACAGGTTCCCCCTGCCATTCGCCGATTTGTAGTGCGCGCTGACCCACAAGATCGAAATTTGCCGCTTCGCCATATGGCAATTCTCCCTTCGGCAACCATAATTTTTGTTCATGGCTGACGACCCACCAGCCGTGATCTAATTTTTCAATTATACGATCCATAGCTCTTGCACTACCTTTGCATCACTGGCATGTTTAACATGGTTTTTACATTTCTCACTGAGCAGTTTTTGAATACAAACTTGCGGAGTCAATC (double strand) [rsd promoter probe (300 bp)]	no binding
